Results from doi:10.1101/2024.11.07.622424.
These are yes or no findings as the source states them, for the method shown. Binding seen in cells or lysates may run through a third protein. A yes stands for co-enrichment or nearness to the bait. Other partners may have been found.

The chains behind the UniProt entries cited, without tags or fusion partners.
UniProt P25490: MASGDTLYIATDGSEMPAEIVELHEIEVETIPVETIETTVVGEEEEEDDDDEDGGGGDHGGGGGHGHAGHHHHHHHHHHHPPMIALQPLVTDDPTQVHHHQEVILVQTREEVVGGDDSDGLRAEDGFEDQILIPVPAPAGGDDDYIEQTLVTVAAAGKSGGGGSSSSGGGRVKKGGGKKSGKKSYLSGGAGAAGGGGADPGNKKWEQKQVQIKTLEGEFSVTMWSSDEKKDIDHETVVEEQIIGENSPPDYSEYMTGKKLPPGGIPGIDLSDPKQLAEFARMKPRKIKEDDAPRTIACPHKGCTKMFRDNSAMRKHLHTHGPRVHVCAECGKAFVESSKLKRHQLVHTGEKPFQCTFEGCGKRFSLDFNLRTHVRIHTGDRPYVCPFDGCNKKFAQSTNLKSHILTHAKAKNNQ

Target: Yin Yang 1 (YY1), endogenous (human (endogenous in THP-1)) (UniProt P25490)
Assay: affinity purification with mass spectrometry

- binding: binds
B1: nucleolar and spindle-associated protein 1 (NUSAP1), endogenous (protein, UniProt Q9BXS6 1-441)
chain: MIIPSLEELDSLKYSDLQNLAKSLGLRANLRATKLLKALKGYIKHEARKGNENQDESQTSASSCDETEIQISNQEEAERQPLGHVTKTRRRCKTVRVDPDSQQNHSEIKISNPTEFQNHEKQESQDLRATAKVPSPPDEHQEAENAVSSGNRDSKVPSEGKKSLYTDESSKPGKNKRTAITTPNFKKLHEAHFKEMESIDQYIERKKKHFEEHNSMNELKQQPINKGGVRTPVPPRGRLSVASTPISQRRSQGRSCGPASQSTLGLKGSLKRSAISAAKTGVRFSAATKDNEHKRSLTKTPARKSAHVTVSGGTPKGEAVLGTHKLKTITGNSAAVITPFKLTTEATQTPVSNKKPVFDLKASLSRPLNYEPHKGKLKPWGQSKENNYLNQHVNRINFYKKTYKQPHLQTKEEQRKKREQERKEKKAKVLGMRRGLILAED
